PubChem BioAssay AID1159578 | Peter MacCallum Cancer Centre | 2015
Shown is an unselected part of about 18,000 deposited reagents. About 1,030 of them (5.7%) count as active. 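Inactive calls also include pools with fewer than 3300 nuclei, whose migration was not assessed.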 Raw values vary from plate to plate and are shown uncorrected. Not all columns of the deposit are shown.

- Assay: 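siRNA pools altering how lymphatic endothelial cells close a scratch wound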 (primary screen)
- Cells: human lymphatic endothelial cells
- Reagent: siRNA pool against human genes, 40 nM
- Time to read-out: 48 h after transfection
- Read-out: 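Cells stained with dye and imaged after a scratch; covered wound area and nuclei counted, duplicates averaged, migration set against mock wells and turned into a robust z-score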
- Direction: migration robust z-score: higher = faster migration into the scratch; nuclei per well: higher = more cells in the well
- Hit rule: 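Pools averaging fewer than 3300 nuclei are never called; remaining pools count as changed when migration robust z lies outside -2 to 2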
- Meaning of the calls: active = migration changed; inactive = no migration change, or too few cells

What is on record for PLAU?
migration robust z-score: -0.1; nuclei per well, duplicate mean: 5192; activity call: inactive

For RSL1D1, what does the deposit list?
migration robust z-score: 1; nuclei per well, duplicate mean: 6014; activity call: inactive

Which result is listed for RPA2?
migration robust z-score: -1.04; nuclei per well, duplicate mean: 5522; activity call: inactive

Which result is listed for TLR9?
migration robust z-score: 1.79; nuclei per well, duplicate mean: 5645; activity call: inactive

What did the screen give for MYOM1?
migration robust z-score: -2.29; nuclei per well, duplicate mean: 5890; activity call: active

For SPOCK2, what does the deposit list?
migration robust z-score: 1.71; nuclei per well, duplicate mean: 6423; activity call: inactive

For ERV3-1, how do the results read?
migration robust z-score: 2.21; nuclei per well, duplicate mean: 5999; activity call: active

What is on record for FRS2?
migration robust z-score: -1.1; nuclei per well, duplicate mean: 5098; activity call: inactive

With C15orf40, what does the deposit list?
migration robust z-score: -0.02; nuclei per well, duplicate mean: 6802; activity call: inactive

Which result is listed for ZNF341?
migration robust z-score: 0.22; nuclei per well, duplicate mean: 6203; activity call: inactive

How did the screen score OTOG?
migration robust z-score: -0.99; nuclei per well, duplicate mean: 4472; activity call: inactive

How did the screen score SPATA45?
migration robust z-score: 0.06; nuclei per well, duplicate mean: 4461; activity call: inactive

How did the screen score SEL1L?
migration robust z-score: 0.24; nuclei per well, duplicate mean: 4646; activity call: inactive

With PYGB, how do the results read?
migration robust z-score: 0.36; nuclei per well, duplicate mean: 6725; activity call: inactive

As entered above.
Value for SPATA45 under “activity call”: inactive
Entry for MYOM1 in “nuclei per well, duplicate mean”: 5890
